PubChem BioAssay AID1508588, Peter MacCallum Cancer Centre – 2020
Here is an unselected part of about 18,000 deposited reagents. 790 of them (4.4%) count as active. 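Calls rest on a combination of fold-change classes in drug and vehicle arms, not all shown here.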 Reagents against one gene are numbered here.

Assay: 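Knock-downs boosting vemurafenib effects on melanoma cell growth or lactate release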 (primary screen)
Cells: human WM266.4 melanoma cells (BRAF V600 mutant)
Reagent: siRNA pool against human genes, 40 nM
Duration: 96 h from transfection to read-out
Challenge: vemurafenib 300 nM (about IC25), added 48 h after transfection, for 48 h; comparison arm got DMSO vehicle only
Measurement: 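Ratios to non-targeting siRNA for cell gain, counted as DAPI nuclei after minus before drug and averaged over two replicates, and for absorbance-read medium lactate per cell; both binned into fold-change classes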
Reading the numbers: cell gain with vemurafenib: higher = more cell gain than with non-targeting siRNA; lactate per cell with vemurafenib: higher = more lactate made per cell
Hit rule: 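a knock-down counts as enhancing when its fold-change classes with vehicle and with vemurafenib, taken together, show a stronger drug effect on cell gain or lactate per cell; exact class pairs not stated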
Calls: active = enhances vemurafenib effect; inactive = no enhancement seen

| gene knocked down | reagent no. | cell gain with vemurafenib | lactate per cell with vemurafenib | activity call |
| --- | --- | --- | --- | --- |
| KCTD6 (potassium channel tetramerization domain containing 6) | 1 | 0.85 | 1.31 | inactive |
| COL6A1 (collagen type VI alpha 1 chain) | 1 | 0.11 | 2.55 | inactive |
| TIGD4 (tigger transposable element derived 4) | 1 | 0.73 | 0.77 | inactive |
| CDC20B (cell division cycle 20B) | 1 | 0.9 | 1.73 | inactive |
| CRACR2A (calcium release activated channel regulator 2A) | 1 | -0.01 | 4.17 | inactive |
| ARL2 (ARF like GTPase 2) | 1 | 0.55 | 1.79 | inactive |
| SLX9 (SLX9 ribosome biogenesis factor) | 1 | 0.78 | 1.19 | inactive |
| OOSP2 (oocyte secreted protein 2) | 1 | 0.81 | 0.8 | inactive |
| SLC9A2 | 1 | 0.59 | 0.89 | inactive |
| ILF2 (interleukin enhancer binding factor 2) | 1 | 0.28 | 0.34 | inactive |
| KRT31 (keratin 31) | 1 | 0.33 | 1.8 | inactive |
| CSN1S1 (casein alpha s1) | 1 | 0.02 | 1.93 | inactive |
| COG3 (component of oligomeric golgi complex 3) | 1 | 0.93 | 0.83 | inactive |
| SEC23B (SEC23 homolog B, COPII component) | 1 | 0.62 | 1.1 | inactive |
| COA7 (cytochrome c oxidase assembly factor 7) | 1 | 0.63 | 1.28 | inactive |
| PLAGL2 (PLAG1 like zinc finger 2) | 1 | 0.42 | 1.9 | inactive |
| CXCL17 (C-X-C motif chemokine ligand 17) | 1 | 0.36 | 0.94 | inactive |
| CYP2E1 (cytochrome P450 family 2 subfamily E member 1) | 1 | 0.77 | 1.08 | inactive |
| KLHL27 (kelch like family member 27) | 1 | 0.24 | 1.62 | inactive |
| APOA4 (apolipoprotein A4) | 1 | 0.92 | 0.76 | inactive |
| DCTN5 (dynactin subunit 5) | 1 | 0.41 | 1.72 | inactive |
| FAM110C (family with sequence similarity 110 member C) | 1 | -0.15 | 0.02 | active |
| LASP1 (LIM and SH3 protein 1) | 1 | 0.6 | 1.04 | inactive |
| PODNL1 (podocan like 1) | 1 | -0.15 | 2.84 | inactive |
| RGS12 (regulator of G protein signaling 12) | 1 | 0.71 | 1.64 | inactive |
| JMJD8 (jumonji domain containing 8) | 1 | 0.72 | 0.8 | inactive |
| RGS2 (regulator of G protein signaling 2) | 1 | -0.07 | -0.3 | active |
| SP6 (Sp6 transcription factor) | 1 | 0.36 | 1.48 | inactive |
| SCGN (secretagogin, EF-hand calcium binding protein) | 1 | 0.36 | 0.86 | inactive |
| STK17A (serine/threonine kinase 17a) | 1 | 1.03 | 0.1 | inactive |
| RNASE11 (ribonuclease A family member 11 (inactive)) | 1 | 0.62 | 0.58 | inactive |
| HSD11B1L (hydroxysteroid 11-beta dehydrogenase 1 like) | 1 | 0.39 | 0.85 | inactive |
| TP63 (tumor protein p63) | 1 | 0.78 | 0.64 | inactive |
| HSPB1 (heat shock protein family B (small) member 1) | 1 | 0.71 | 0.66 | inactive |
| ZNF562 (zinc finger protein 562) | 1 | 0.45 | 1.98 | inactive |
| PGCKA1 (PDCD10 and GCKIII kinases associated 1) | 1 | 0.29 | 2 | inactive |
| TMEM123 (transmembrane protein 123) | 1 | 0.77 | 1.38 | inactive |
| TMEM79 (transmembrane protein 79) | 1 | 0.78 | 0.78 | inactive |
| DCAF6 (DDB1 and CUL4 associated factor 6) | 1 | 0.46 | 1.01 | inactive |
| MTHFD1L | 1 | 0.55 | 1.35 | inactive |
| SSR3 (signal sequence receptor subunit 3) | 1 | 0.37 | 0.88 | inactive |
| SMC1A (structural maintenance of chromosomes 1A) | 1 | 0.24 | 0.82 | inactive |
| SNAP29 (synaptosome associated protein 29) | 1 | 0.31 | 1.5 | inactive |
| JCHAIN (joining chain of multimeric IgA and IgM) | 1 | 0.31 | 2.77 | inactive |
| C16orf46 (chromosome 16 open reading frame 46) | 1 | 0 | 1.98 | inactive |
| GABRB2 (gamma-aminobutyric acid type A receptor subunit beta2) | 1 | 0.16 | 1.19 | inactive |
| SH3GL1 (SH3 domain containing GRB2 like 1, endophilin A2) | 1 | 0.58 | 1.2 | inactive |
| ZGRF1 (zinc finger GRF-type containing 1) | 1 | 0.23 | 1.64 | inactive |
| ZGRF1 (zinc finger GRF-type containing 1) | 2 | 0.31 | 1.14 | inactive |
| NCK1 (NCK adaptor protein 1) | 1 | 0.66 | 0.55 | inactive |

The list goes on, starting with the last 5 of the part before.
| gene knocked down | reagent no. | cell gain with vemurafenib | lactate per cell with vemurafenib | activity call |
| --- | --- | --- | --- | --- |
| GABRB2 (gamma-aminobutyric acid type A receptor subunit beta2) | 1 | 0.16 | 1.19 | inactive |
| SH3GL1 (SH3 domain containing GRB2 like 1, endophilin A2) | 1 | 0.58 | 1.2 | inactive |
| ZGRF1 (zinc finger GRF-type containing 1) | 1 | 0.23 | 1.64 | inactive |
| ZGRF1 (zinc finger GRF-type containing 1) | 2 | 0.31 | 1.14 | inactive |
| NCK1 (NCK adaptor protein 1) | 1 | 0.66 | 0.55 | inactive |
| GALNT4 (polypeptide N-acetylgalactosaminyltransferase 4) | 1 | 0.84 | 1.04 | inactive |
| GAPDH (glyceraldehyde-3-phosphate dehydrogenase) | 1 | 0.97 | 1.04 | inactive |
| CACNA1A (calcium voltage-gated channel subunit alpha1 A) | 1 | 0.08 | 1.29 | inactive |
| FASN (fatty acid synthase) | 1 | 0.31 | 0.85 | inactive |
| LPAR2 (lysophosphatidic acid receptor 2) | 1 | 0.57 | 0.72 | inactive |
| ANKRD44 (ankyrin repeat domain 44) | 1 | 0.58 | 2.13 | inactive |
| HEY1 | 1 | 0.36 | 0.88 | inactive |
| ZNF30 (zinc finger protein 30) | 1 | 0.74 | 0.26 | inactive |
| C2orf42 (chromosome 2 open reading frame 42) | 1 | 0.77 | 1.26 | inactive |
| DNAJB11 (DnaJ heat shock protein family (Hsp40) member B11) | 1 | 0.28 | 0.94 | inactive |
| CIBAR2 (CBY1 interacting BAR domain containing 2) | 1 | 0.85 | 1.07 | inactive |
| CEACAM21 (CEA cell adhesion molecule 21) | 1 | 0.35 | 0.75 | inactive |
| OR7C2 (olfactory receptor family 7 subfamily C member 2) | 1 | 0.27 | 0.49 | inactive |
| HPDL (4-hydroxyphenylpyruvate dioxygenase like) | 1 | 0.52 | 0.99 | inactive |
| CYP17A1 (cytochrome P450 family 17 subfamily A member 1) | 1 | 1.06 | 0.73 | inactive |
| SPATA7 (spermatogenesis associated 7) | 1 | 0.68 | 1.17 | inactive |
| TMEM151A (transmembrane protein 151A) | 1 | 0.35 | 1.27 | inactive |
| NXPE4 (neurexophilin and PC-esterase domain family member 4) | 1 | 0.62 | 0.9 | inactive |
| DESI1 (desumoylating isopeptidase 1) | 1 | 0.62 | 0.32 | inactive |
| KLHL9 (kelch like family member 9) | 1 | 0.62 | 1.52 | inactive |
| CCNB2 (cyclin B2) | 1 | 0.28 | 0.98 | inactive |
| CHST3 (carbohydrate sulfotransferase 3) | 1 | 0.17 | 1.51 | inactive |
| RIBC2 (RIB43A domain with coiled-coils 2) | 1 | 0.15 | 1.08 | inactive |
| CD80 (CD80 molecule) | 1 | 0.5 | 1.58 | inactive |
| SPMAP2 (sperm microtubule associated protein 2) | 1 | 0.53 | 1.09 | inactive |
| NHSL2 (NHS like 2) | 1 | -0.06 | 4.11 | inactive |
| NHSL2 (NHS like 2) | 2 | 0.92 | 0.64 | inactive |
| SATL1 (spermidine/spermine N1-acetyl transferase like 1) | 1 | 0.55 | 0.95 | inactive |
| BLOC1S1 (biogenesis of lysosomal organelles complex 1 subunit 1) | 1 | 0.5 | 1.16 | inactive |
| SERPINB7 (serpin family B member 7) | 1 | 0.59 | 0.29 | active |
| POGLUT2 (protein O-glucosyltransferase 2) | 1 | 0.19 | 1.9 | active |
| NAT8 (N-acetyltransferase 8 (putative)) | 1 | 0.8 | 0.73 | inactive |
| NKX3-1 (NK3 homeobox 1) | 1 | 0.66 | 1.38 | inactive |
| BORA (BORA aurora kinase A activator) | 1 | 0.37 | 1.4 | inactive |
